Record: PubChem BioAssay AID1224830 (NIAID, 2016)

- Aim: 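Host factors that control LPS-induced TNF expression in human macrophages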 (primary screen)
- Cells: human THP-1 monocytic leukaemia cells, TNF dual-luciferase reporter clone, PMA-differentiated to macrophage-like cells
- Reagent: siRNA pool against human genes, 50 nM
- Timing: LPS for 4 h, given about 3 days after siRNA transfection
- Challenge: bacterial LPS (TLR4 ligand), 10 ng/ml
- Read-out: 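Ratio of firefly to renilla light, scaled to the plate median and expressed as a robust z-score per replicate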
- Scale: TNF reporter robust z-score: higher = stronger TNF reporter response to LPS
- Active means: 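Each well counts as active if its z-score is over 2.8 or under -1.5; controls are left without a call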
This is an unselected part of about 18,000 reagents tested. Of all reagents, about 2,900 (16%) were called active. 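Calls are made per well; low scores hint the gene aids the LPS response, high scores that it dampens it.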 A number with no mark means an inactive call. Repeated entries: four replicate wells of each siRNA pool.

Gene | TNF reporter robust z-score
ASB11 (ankyrin repeat and SOCS box containing 11) | -1.37
ASB11 (ankyrin repeat and SOCS box containing 11) | 1
ASB11 (ankyrin repeat and SOCS box containing 11) | -0.43
ASB11 (ankyrin repeat and SOCS box containing 11) | -0.44
PDLIM1 (PDZ and LIM domain 1) | 0.54
PDLIM1 (PDZ and LIM domain 1) | 0.97
PDLIM1 (PDZ and LIM domain 1) | -0.25
PDLIM1 (PDZ and LIM domain 1) | 0.2
FBXO42 (F-box protein 42) | -0.41
FBXO42 (F-box protein 42) | -0.58
FBXO42 (F-box protein 42) | -1.76 (active)
FBXO42 (F-box protein 42) | -0.47
CACNG8 (calcium voltage-gated channel auxiliary subunit gamma 8) | 0.22
CACNG8 (calcium voltage-gated channel auxiliary subunit gamma 8) | 0.21
CACNG8 (calcium voltage-gated channel auxiliary subunit gamma 8) | -0.88
CACNG8 (calcium voltage-gated channel auxiliary subunit gamma 8) | 0.16
RAB32 (RAB32, member RAS oncogene family) | -0.04
RAB32 (RAB32, member RAS oncogene family) | 0.24
RAB32 (RAB32, member RAS oncogene family) | 2.45
RAB32 (RAB32, member RAS oncogene family) | 0.23
TGOLN2 (trans-golgi network protein 2) | 4.82 (active)
TGOLN2 (trans-golgi network protein 2) | 2.42
TGOLN2 (trans-golgi network protein 2) | 3.77 (active)
TGOLN2 (trans-golgi network protein 2) | 5.17 (active)
CDR2 (cerebellar degeneration related protein 2) | -0.45
CDR2 (cerebellar degeneration related protein 2) | 0.63
CDR2 (cerebellar degeneration related protein 2) | 0.03
CDR2 (cerebellar degeneration related protein 2) | 0.83
GBP2 (guanylate binding protein 2) | -0.84
GBP2 (guanylate binding protein 2) | -1.1
GBP2 (guanylate binding protein 2) | -1.42
GBP2 (guanylate binding protein 2) | -1.21
CDY1 (chromodomain Y-linked 1) | -0.45
CDY1 (chromodomain Y-linked 1) | -0.59
CDY1 (chromodomain Y-linked 1) | -0.71
CDY1 (chromodomain Y-linked 1) | 0.28
ID4 (inhibitor of DNA binding 4) | -1.3
ID4 (inhibitor of DNA binding 4) | 0.62
ID4 (inhibitor of DNA binding 4) | -0.68
ID4 (inhibitor of DNA binding 4) | -1.49
TMT1A (thiol methyltransferase 1A) | -0.94
TMT1A (thiol methyltransferase 1A) | 1.26
TMT1A (thiol methyltransferase 1A) | -1.15
TMT1A (thiol methyltransferase 1A) | -0.81
RNF122 (ring finger protein 122) | 0.87
RNF122 (ring finger protein 122) | -1.22
RNF122 (ring finger protein 122) | -1.53 (active)
RNF122 (ring finger protein 122) | -0.06
LEKR1 (leucine, glutamate and lysine rich 1) | -0.85
LEKR1 (leucine, glutamate and lysine rich 1) | -0.42
LEKR1 (leucine, glutamate and lysine rich 1) | -0.39
LEKR1 (leucine, glutamate and lysine rich 1) | 0.32
MANF (mesencephalic astrocyte derived neurotrophic factor) | 2.56
MANF (mesencephalic astrocyte derived neurotrophic factor) | 2.7
MANF (mesencephalic astrocyte derived neurotrophic factor) | 1.56
MANF (mesencephalic astrocyte derived neurotrophic factor) | 2.78
PCDHGB6 (protocadherin gamma subfamily B, 6) | -0.11
PCDHGB6 (protocadherin gamma subfamily B, 6) | 0.02
PCDHGB6 (protocadherin gamma subfamily B, 6) | 0.58
PCDHGB6 (protocadherin gamma subfamily B, 6) | 0.68
AKAP5 (A-kinase anchoring protein 5) | -0.42
AKAP5 (A-kinase anchoring protein 5) | -0.35
AKAP5 (A-kinase anchoring protein 5) | -0.3
AKAP5 (A-kinase anchoring protein 5) | 0.56
MYBL2 (MYB proto-oncogene like 2) | -1.73 (active)
MYBL2 (MYB proto-oncogene like 2) | -1.98 (active)
MYBL2 (MYB proto-oncogene like 2) | -1.79 (active)
MYBL2 (MYB proto-oncogene like 2) | -1.68 (active)
AUP1 (AUP1 lipid droplet regulating VLDL assembly factor) | -0.34
AUP1 (AUP1 lipid droplet regulating VLDL assembly factor) | -0.93
AUP1 (AUP1 lipid droplet regulating VLDL assembly factor) | -1.1
AUP1 (AUP1 lipid droplet regulating VLDL assembly factor) | 0.4
RAB22A (RAB22A, member RAS oncogene family) | -0.45
RAB22A (RAB22A, member RAS oncogene family) | 0.01
RAB22A (RAB22A, member RAS oncogene family) | 0.42
RAB22A (RAB22A, member RAS oncogene family) | 1.23
AGPAT5 (1-acylglycerol-3-phosphate O-acyltransferase 5) | 2.37
AGPAT5 (1-acylglycerol-3-phosphate O-acyltransferase 5) | 0.46
AGPAT5 (1-acylglycerol-3-phosphate O-acyltransferase 5) | -0.73
AGPAT5 (1-acylglycerol-3-phosphate O-acyltransferase 5) | 1.09
ZBTB16 (zinc finger and BTB domain containing 16) | -1.37
ZBTB16 (zinc finger and BTB domain containing 16) | -0.92
ZBTB16 (zinc finger and BTB domain containing 16) | -1.24
ZBTB16 (zinc finger and BTB domain containing 16) | -1.02
CTHRC1 (collagen triple helix repeat containing 1) | 0.05
CTHRC1 (collagen triple helix repeat containing 1) | -0.27
CTHRC1 (collagen triple helix repeat containing 1) | 0.3
TRAF4 (TNF receptor associated factor 4) | 3.19 (active)
TRAF4 (TNF receptor associated factor 4) | 1.93
TRAF4 (TNF receptor associated factor 4) | 2.81 (active)
TRAF4 (TNF receptor associated factor 4) | 5.5 (active)
AURKAIP1 (aurora kinase A interacting protein 1) | -1.23
AURKAIP1 (aurora kinase A interacting protein 1) | 0
AURKAIP1 (aurora kinase A interacting protein 1) | 0.02
AURKAIP1 (aurora kinase A interacting protein 1) | -0.42
LINC01599 (long independently transcribed non-coding RNA 1599) | -1.01
LINC01599 (long independently transcribed non-coding RNA 1599) | 0.41
LINC01599 (long independently transcribed non-coding RNA 1599) | 0.56
LINC01599 (long independently transcribed non-coding RNA 1599) | -0.4
IL13 (interleukin 13) | -0.31
IL13 (interleukin 13) | 0.24
IL13 (interleukin 13) | 0.11
IL13 (interleukin 13) | 0.14
STAP2 (signal transducing adaptor family member 2) | -1.46
STAP2 (signal transducing adaptor family member 2) | -0.62
STAP2 (signal transducing adaptor family member 2) | -0.59
STAP2 (signal transducing adaptor family member 2) | -0.25
NID2 (nidogen 2) | 1.57
NID2 (nidogen 2) | 2.32
NID2 (nidogen 2) | -0.78
NID2 (nidogen 2) | -0.09
ZC2HC1C (zinc finger C2HC-type containing 1C) | -0.86
ZC2HC1C (zinc finger C2HC-type containing 1C) | -0.42
ZC2HC1C (zinc finger C2HC-type containing 1C) | -0.64
ZC2HC1C (zinc finger C2HC-type containing 1C) | -1.02
ITGB1BP2 (integrin subunit beta 1 binding protein 2) | -0.36
ITGB1BP2 (integrin subunit beta 1 binding protein 2) | 0.33
ITGB1BP2 (integrin subunit beta 1 binding protein 2) | 0.13
ITGB1BP2 (integrin subunit beta 1 binding protein 2) | 0.64
TAP1 (transporter 1, ATP binding cassette subfamily B member) | -0.67
TAP1 (transporter 1, ATP binding cassette subfamily B member) | -1.32
TAP1 (transporter 1, ATP binding cassette subfamily B member) | -0.86
TAP1 (transporter 1, ATP binding cassette subfamily B member) | -0.38
ARHGEF12 (Rho guanine nucleotide exchange factor 12) | 1.66
ARHGEF12 (Rho guanine nucleotide exchange factor 12) | 2.72
ARHGEF12 (Rho guanine nucleotide exchange factor 12) | 1.36
ARHGEF12 (Rho guanine nucleotide exchange factor 12) | 2.34
POLD4 (DNA polymerase delta 4, accessory subunit) | -1.51 (active)
POLD4 (DNA polymerase delta 4, accessory subunit) | -1.12
POLD4 (DNA polymerase delta 4, accessory subunit) | -1.44
POLD4 (DNA polymerase delta 4, accessory subunit) | -0.67
GRIA3 (glutamate ionotropic receptor AMPA type subunit 3) | -0.97
GRIA3 (glutamate ionotropic receptor AMPA type subunit 3) | -1.56 (active)
GRIA3 (glutamate ionotropic receptor AMPA type subunit 3) | -1.36
GRIA3 (glutamate ionotropic receptor AMPA type subunit 3) | -1.05
DENND5A (DENN domain containing 5A) | 7.31 (active)
DENND5A (DENN domain containing 5A) | 3.5 (active)
DENND5A (DENN domain containing 5A) | 1.35
DENND5A (DENN domain containing 5A) | 1.8
TPI1 (triosephosphate isomerase 1) | 1.61
TPI1 (triosephosphate isomerase 1) | 1.56
TPI1 (triosephosphate isomerase 1) | 1.46
TPI1 (triosephosphate isomerase 1) | 2.49

Records listed above with an active call (16):
Gene | TNF reporter robust z-score
FBXO42 (F-box protein 42) | -1.76 (active)
TGOLN2 (trans-golgi network protein 2) | 4.82 (active)
TGOLN2 (trans-golgi network protein 2) | 3.77 (active)
TGOLN2 (trans-golgi network protein 2) | 5.17 (active)
RNF122 (ring finger protein 122) | -1.53 (active)
MYBL2 (MYB proto-oncogene like 2) | -1.73 (active)
MYBL2 (MYB proto-oncogene like 2) | -1.98 (active)
MYBL2 (MYB proto-oncogene like 2) | -1.79 (active)
MYBL2 (MYB proto-oncogene like 2) | -1.68 (active)
TRAF4 (TNF receptor associated factor 4) | 3.19 (active)
TRAF4 (TNF receptor associated factor 4) | 2.81 (active)
TRAF4 (TNF receptor associated factor 4) | 5.5 (active)
POLD4 (DNA polymerase delta 4, accessory subunit) | -1.51 (active)
GRIA3 (glutamate ionotropic receptor AMPA type subunit 3) | -1.56 (active)
DENND5A (DENN domain containing 5A) | 7.31 (active)
DENND5A (DENN domain containing 5A) | 3.5 (active)
